# Test results as given in the supplement of paper PMC8732350.
# Counter-ions that a name gives are not always drawn. ± gives the standard deviation of the averaged measurements. Some of the results follow. Repeats in this data set agree poorly, so a single value says little.
# Tested on: A549
# Assay: surface PD-L1 immunofluorescence intensity relative to IFN-gamma-only control (ratio); higher = more PD-L1 expression
# Settings: 10 µM; exposure time 24 h; IFN-gamma 100 ng/mL
row,Structure (SMILES),surface PD-L1 immunofluorescence intensity
1,CCCC(C)C1(CC)C(=O)NC(=O)NC1=O (centres undefined) [Pentobarbital],0.993
2,COP(=O)(OC)C(O)C(Cl)(Cl)Cl (centres undefined) [Trichlorfon],0.872
3,C[C@]12C[C@H]3S[C@H]3C[C@@H]1CC[C@@H]1[C@@H]2CC[C@]2(C)[C@@H](O)CC[C@@H]12 [Epitiostanol],1.01
4,CNC1CC(N)C(O)C(OC2OC(CO)C(O)C3OC4(OC(C(N)CO)C(O)C(O)C4O)OC23)C1O (centres undefined) [Hygromycin B],0.97
5,Cn1cc(C2=C(c3cn(C4CCN(Cc5ccccn5)CC4)c4ccccc34)C(=O)NC2=O)c2ccccc21,1.28
6,Cc1ccc2cc3c(ccc4ccccc43)c3c2c1CC3 [3-Methylcholanthrene],0.957
7,C=CCN1CC[C@]23c4c5ccc(O)c4O[C@H]2C(=O)CC[C@@]3(O)[C@H]1C5 [Naloxone hydrochloride],1.07
8,CC[C@@H](C(=O)[C@@H](C)[C@@H](O)[C@H](C)[C@@H]1O[C@@H]([C@@H](CC)C(=O)O)CC[C@@H]1C)[C@H]1O[C@]2(C=C[C@@H](O)[C@]3(CC[C@@](C)([C@H]4CC[C@](O)(CC)[C@H](C)O4)O3)O2)[C@H](C)C[C@@H]1C [Salinomycin (Procoxacin)],1.23
9,C(#CCN1CCCC1)CN1CCCC1 [Tremorine dihydrochloride],1.1
10,OC(Cc1ccncc1)C(Cl)(Cl)Cl (centres undefined),0.989
11,Cc1cccc(C)c1NC(=O)CN1CCCC1=O [Nefiracetam (Translon)],1.02
12,CS(=O)(=O)Nc1ccc(Cc2noc(-c3ccc4[nH]cc(CCN)c4c3)n2)cc1,0.959
13,C[C@]12CCC(=O)C=C1C=C[C@@H]1[C@@H]2CC[C@@]2(C)[C@H]1CC[C@@]2(O)CCC(=O)O [Canrenoic acid potassium salt],0.906
14,CCCC[N+]1(C)[C@@H]2C[C@@H](OC(=O)[C@H](CO)c3ccccc3)C[C@H]1[C@@H]1O[C@@H]12 (some centres undefined) [Butylscopolamine bromide (Scopolamine butylbromide)],1.11
15,Cc1cccc(Cc2c[nH]cn2)c1C [Detomidine HCl],1.12
16,N#CC(C#N)=Cc1ccc(O)c(O)c1 [AG 18 (Tyrphostin 23)],0.94
17,CC(C)c1cc2c(c(O)c1O)[C@@]1(C(=O)O)CCCC(C)(C)[C@@H]1CC2 [Carnosic acid],0.975
18,CC(C)c1cccc(C(C)C)c1O [Propofol],1
19,C[C@]12CC[C@H](O)C[C@H]1CC[C@@H]1[C@@H]2CC[C@]2(C)[C@@H](C3=CC(=O)OC3)CC[C@]12O [Digitoxigenin],1.01
20,"CC12NC(Cc3ccccc31)c1ccccc12 (single isomer, unassigned; (+)) [(+)-MK 801 maleate]",0.954
21,CCC(Oc1ccc(Cl)cc1)C(=O)OC1C[C@H]2CC[C@@H](C1)N2C (some centres undefined) [SM-21 maleate],1.13
22,CCCN1CCC[C@@H]2Cc3n[nH]cc3C[C@H]21 [(-)-Quinpirole hydrochloride],1.04
23,CN1C[C@H](CNC(=O)OCc2ccccc2)C[C@@H]2c3cccc4c3c(cn4C)C[C@H]21 [Metergoline],1.03 ± 0.072
24,CC(=O)O[C@H]1CC[C@@]2(C)C(=CC[C@@H]3[C@@H]2CC[C@]2(C)C(=O)CC[C@@H]32)C1 [Dehydroisoandosterone 3-acetate],0.984
25,O=C(NCNC(=O)NC1C(=O)NC(=O)N1CO)NC1C(=O)NC(=O)N1CO (centres undefined) [Imidurea],0.99

row,Structure (SMILES),surface PD-L1 immunofluorescence intensity
1,O=[N+]([O-])c1ncc[nH]1 [Azomycin (2-Nitroimidazole)],1
2,Oc1ccc2c3c1O[C@H]1[C@@H](O)CC[C@@]4(O)[C@@H](C2)N(CC2CCC2)CC[C@]314 [Nalbuphine hydrochloride],0.939
3,CC1C=CC=CCCC=CC=CC=CC=CC(OC2OC(C)C(O)C(N)C2O)CC2OC(O)(CC(O)C(O)CCC(O)CC(O)CC(O)CC(=O)OC(C)C(C)C1O)CC(O)C2C(=O)O (centres undefined) [Nystatin (Mycostatin)],1.09
4,C[C@]12CC[C@H](O)CC1=CC[C@@H]1[C@@H]2CC[C@]2(C)C(=O)CC[C@@H]12 [Dehydroepiandrosterone (DHEA)],1.06
5,CC[C@@H](CO)NC(=O)[C@@H]1C=C2c3cccc4c3c(cn4C)C[C@H]2N(C)C1 [Methysergide maleate],1.08
6,N#C[C@H](O[C@@H]1O[C@H](CO[C@@H]2O[C@H](CO)[C@@H](O)[C@H](O)[C@H]2O)[C@@H](O)[C@H](O)[C@H]1O)c1ccccc1 [Amygdalin],1.05
7,"CC(=O)N1CC[N+](C)(C)CC1 [4-Acetyl-1,1-dimethylpiperazinium iodide]",1.09
8,NC(C(=O)O)c1nn[nH]n1 (racemic) [(RS)-(Tetrazol-5-yl)glycine],1.05
9,COc1ccc(CC2NCCc3cc(OC)c(OC)cc32)cc1OC (centres undefined) [Tetrahydropapaverine HCl],1.04
10,c1ccc2c(c1)OCC(C1=NCCN1)O2 (centres undefined) [Idazoxan hydrochloride],0.97 ± 0.084
11,CCC[C@@H]1CC2=CC(=O)CC[C@]2(C)[C@H]2CC[C@@]3(C)[C@@H](CC[C@@]3(O)CCC(=O)O)[C@H]12,0.944
12,COC1(C[S@+]([O-])c2ccccc2)CCN(CCc2c[nH]c3ccc(F)cc23)CC1,0.962
13,CC[N+]1(C)CCCC(OC(=O)C(O)(c2ccccc2)c2ccccc2)C1 (centres undefined) [Pipenzolate bromide],1.01
14,Cc1nnc2n1-c1sc(CCC(=O)N3CCOCC3)cc1C(c1ccccc1Cl)=NC2,0.908
15,CC[C@@H](CO)NC(=O)[C@@H]1C=C2c3cccc4[nH]cc(c34)C[C@H]2N(C)C1 [Methylergometrine maleate],1.01 ± 0.034
16,CCC1(C2=NCCN2)Cc2ccccc2O1 (centres undefined) [Efaroxan hydrochloride],0.904
17,NC(N)=Nc1ccc2[nH]c3c(c2c1)C[C@@]1(O)[C@H]2Cc4ccc(O)c5c4[C@@]1(CCN2CC1CC1)[C@H]3O5 [GNTI dihydrochloride],1.01
18,CCOC(=O)c1ncn2c1[C@@H]1CCCN1C(=O)c1cc(OC)ccc1-2,0.987
19,CN1[C@@H]2CC[C@H]1C[C@@H](OC(=O)c1cc(Cl)cc(Cl)c1)C2,1.08
20,O=C(O)c1nn(Cc2ccc(Cl)cc2Cl)c2ccccc12 [Lonidamine],0.971
21,O=c1[nH]oc2c1CCNC2 [THIP Hydrochloride],1.02
22,O=c1[nH]oc2c1CCNC2 [THIP hydrochloride],0.823
23,C[N+]1(C)CCc2cc3c(cc2[C@H]1[C@@H]1OC(=O)c2c1ccc1c2OCO1)OCO3 [(-)-Bicuculline methochloride],1.04
24,C[N+]1(C)CCc2cc3c(cc2[C@H]1[C@@H]1OC(=O)c2c1ccc1c2OCO1)OCO3 [(-)-Bicuculline methiodide],0.999
25,CN1CC[C@@H]2CN3CCc4cccc(c43)[C@@H]2C1 [SDZ SER 082 fumarate],1.05

row,Structure (SMILES),surface PD-L1 immunofluorescence intensity
1,O=c1cccc2n1C[C@@H]1CNC[C@H]2C1 [(-)-Cytisine],1.08
2,"O=c1cccc2n1C[C@@H]1CNC[C@H]2C1 [Cytisine (Baphitoxine, Sophorine)]",1.01
3,NCC1(CC(=O)O)CCCCC1 [Gabapentin],1.04
4,Fc1ccc(C(OCCN2CCN(C/C=C/c3ccccc3)CC2)c2ccc(F)cc2)cc1,1.05
5,C=C1CC[C@@]2(O)[C@H]3Cc4ccc(O)c5c4[C@@]2(CCN3CC2CC2)[C@H]1O5 [Nalmefene hydrochloride],1.07
6,O=[N+]([O-])O[C@H]1CO[C@H]2[C@@H]1OC[C@H]2O[N+](=O)[O-] [Isosorbide dinitrate],1.08
7,O=C(CCCN1CCC2(CC1)C(=O)NCN2c1ccccc1)c1ccc(F)cc1 [Spiperone],0.998
8,CC(N)C(O)c1ccccc1 (centres undefined) [Phenylpropanolamine hydrochloride],1.14
9,CCCCC1(C2CCCC2)Cc2cc(OCCCC(=O)O)c(Cl)c(Cl)c2C1=O (centres undefined),0.953
10,Cc1ncsc1CCCl [Chlormethiazole hydrochloride],1.02
11,CCOC(=O)c1cncn1[C@H](C)c1ccccc1 [Etomidate],1.09
12,CN1C2CCC1CC(OC(c1ccccc1)c1ccc(Cl)cc1)C2 (centres undefined),1.05
13,"CN1CCc2cc3c(cc2C1C1OC(=O)c2c1ccc1c2OCO1)OCO3 (single isomer, unassigned; (+)) [(+)-Bicuculline]",1.02 ± 0.11
14,CC(O)(CS(=O)(=O)c1ccc(F)cc1)C(=O)Nc1ccc(C#N)c(C(F)(F)F)c1 (centres undefined) [Bicalutamide],1.08
15,CCC1(C)CC(=O)NC(=O)C1 [Bemegride],1.02
16,CCCC(C)(COC(N)=O)COC(=O)NC(C)C (centres undefined) [Carisoprodol],1.03
17,C/C(O)=C(\C#N)C(=O)Nc1cc(Br)ccc1Br,0.919
18,Cc1ccccc1-n1c(Cn2ncc3c(N)ncnc32)nc2cccc(C)c2c1=O,0.933
19,Cc1ccc2c(c1)C1(CCN(CCc3nc(-c4ccccc4)oc3C)CC1)OC(=O)N2,1.04
20,N[C@@H]1C[C@H]1c1ccccc1.N[C@H]1C[C@@H]1c1ccccc1 [Tranylcypromine hemisulfate],1.1
21,C[C@]12CCC(=O)C=C1CC[C@@H]1[C@@H]2CC[C@]2(C)C(=O)CC[C@@H]12 [Androstenedione],1.01
22,OC(c1ccccc1)(c1ccccc1)C1CCNCC1 [Azacyclonol],0.993
23,COc1cc(N)c(Cl)cc1C(=O)NC1CN2CCC1CC2 (centres undefined) [Zacopride hydrochloride],0.951
24,N=C(NCc1ccc(Cl)cc1)SCCCc1c[nH]cn1 [Clobenpropit dihydrobromide],1.11

# A different layout for part of the listing above.
row	Structure (SMILES)	surface PD-L1 immunofluorescence intensity
4	Fc1ccc(C(OCCN2CCN(C/C=C/c3ccccc3)CC2)c2ccc(F)cc2)cc1	1.05
5	C=C1CC[C@@]2(O)[C@H]3Cc4ccc(O)c5c4[C@@]2(CCN3CC2CC2)[C@H]1O5 [Nalmefene hydrochloride]	1.07
6	O=[N+]([O-])O[C@H]1CO[C@H]2[C@@H]1OC[C@H]2O[N+](=O)[O-] [Isosorbide dinitrate]	1.08
7	O=C(CCCN1CCC2(CC1)C(=O)NCN2c1ccccc1)c1ccc(F)cc1 [Spiperone]	0.998
8	CC(N)C(O)c1ccccc1 (centres undefined) [Phenylpropanolamine hydrochloride]	1.14
9	CCCCC1(C2CCCC2)Cc2cc(OCCCC(=O)O)c(Cl)c(Cl)c2C1=O (centres undefined)	0.953
10	Cc1ncsc1CCCl [Chlormethiazole hydrochloride]	1.02
11	CCOC(=O)c1cncn1[C@H](C)c1ccccc1 [Etomidate]	1.09
12	CN1C2CCC1CC(OC(c1ccccc1)c1ccc(Cl)cc1)C2 (centres undefined)	1.05
13	CN1CCc2cc3c(cc2C1C1OC(=O)c2c1ccc1c2OCO1)OCO3 (single isomer, unassigned; (+)) [(+)-Bicuculline]	1.02 ± 0.11
14	CC(O)(CS(=O)(=O)c1ccc(F)cc1)C(=O)Nc1ccc(C#N)c(C(F)(F)F)c1 (centres undefined) [Bicalutamide]	1.08
15	CCC1(C)CC(=O)NC(=O)C1 [Bemegride]	1.02
16	CCCC(C)(COC(N)=O)COC(=O)NC(C)C (centres undefined) [Carisoprodol]	1.03
17	C/C(O)=C(\C#N)C(=O)Nc1cc(Br)ccc1Br	0.919
18	Cc1ccccc1-n1c(Cn2ncc3c(N)ncnc32)nc2cccc(C)c2c1=O	0.933
19	Cc1ccc2c(c1)C1(CCN(CCc3nc(-c4ccccc4)oc3C)CC1)OC(=O)N2	1.04
20	N[C@@H]1C[C@H]1c1ccccc1.N[C@H]1C[C@@H]1c1ccccc1 [Tranylcypromine hemisulfate]	1.1
